Assay results published in article PMC10223884, “Oligosaccharide Ligands of Galectin-4 and Its Subunits: Multivalency Scores Highly” (Molecules, 2023).
These are yes or no findings as the source states them, for the method shown. Some binding calls cover weakened binding; strength is not graded here.

T1: asialofetuin (standard glycoprotein, MW 48.4 kDa) (UniProt P12763)
T1 sequence (chain, glycoprotein without sialic acid; carries up to nine LacNAc epitopes): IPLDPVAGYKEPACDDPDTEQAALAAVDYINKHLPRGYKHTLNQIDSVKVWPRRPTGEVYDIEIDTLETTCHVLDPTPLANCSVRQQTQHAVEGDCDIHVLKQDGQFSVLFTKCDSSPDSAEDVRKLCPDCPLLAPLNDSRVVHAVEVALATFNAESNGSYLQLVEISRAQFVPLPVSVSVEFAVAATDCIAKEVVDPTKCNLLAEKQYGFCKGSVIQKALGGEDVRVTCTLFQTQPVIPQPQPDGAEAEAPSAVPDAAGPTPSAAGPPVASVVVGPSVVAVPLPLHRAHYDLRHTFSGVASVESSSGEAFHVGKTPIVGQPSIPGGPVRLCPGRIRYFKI


Molecular target: T1, asialofetuin (standard glycoprotein, MW 48.4 kDa)
Assay: ELISA; competitive ELISA; ASF (0.1 µM) coated; serial dilutions of inhibitor in EPBS (PBS with 2 mM EDTA) with Gal-4 (2.5 µM) or Gal-4NL/Gal-4CL (25 µM), 2 h; bound galectin detected with HRP-conjugated anti-His antibody; both purified

binding | Binder
binds | N-terminal subunit of Gal-4 with 10 linker residues (Gal-4NL, aa 1-160) (domain or fragment, human, UniProt P56470 1-160, looked up, Galectin-4, human, N-terminal CRD (aa 1-150) with 10 further residues of the inter-domain linker at the C-terminus (aa 1-160); made by PCR from the Gal-4 plasmid, NdeI/XhoI; not shown: His6, N-terminal, kept) MAYVPAPGYQPTYNPTLPYYQPIPGGLNVGMSVYIQGVASEHMKRFFVNFVVGQDPGSDVAFHFNPRFDGWDKVVFNTLQGGKWGSEERKRSMPFKKGAAFELVFIVLAEHYKVVVNGNPFYEYGHRLPLQMVTHLQVDGDLQLQSINFIGGQPLRPQGP
binds | Galectin-4 (whole, His6-tagged construct of human Gal-4) (natural protein, UniProt P56470 1-323, looked up, Galectin-4, human, whole protein (two CRDs joined by the linker peptide); also called whole Gal-4; total Gal-4; not shown: His6, N-terminal, kept) MAYVPAPGYQPTYNPTLPYYQPIPGGLNVGMSVYIQGVASEHMKRFFVNFVVGQDPGSDVAFHFNPRFDGWDKVVFNTLQGGKWGSEERKRSMPFKKGAAFELVFIVLAEHYKVVVNGNPFYEYGHRLPLQMVTHLQVDGDLQLQSINFIGGQPLRPQGPPMMPPYPGPGHCHQQLNSLPTMEGPPTFNPPVPYFGRLQGGLTARRTIIIKGYVPPTGKSFAINFKVGSSGDIALHINPRMGNGTVVRNSLLNGSWGSEEKKITHNPFGPGQFFDLSIRCGLDRFKVYANGQHLFDFAHRLSAFQRVDTLEIQGDVTLSYVQI
binds | C-terminal subunit of Gal-4 with 10 linker residues (Gal-4CL, aa 169-323) (domain or fragment, human, UniProt P56470 169-323, looked up, Galectin-4, human, C-terminal CRD (aa 179-323) with 10 further residues of the inter-domain linker at the N-terminus (aa 169-323); made by PCR from the Gal-4 plasmid, NdeI/XhoI; not shown: His6, N-terminal, kept) PGHCHQQLNSLPTMEGPPTFNPPVPYFGRLQGGLTARRTIIIKGYVPPTGKSFAINFKVGSSGDIALHINPRMGNGTVVRNSLLNGSWGSEEKKITHNPFGPGQFFDLSIRCGLDRFKVYANGQHLFDFAHRLSAFQRVDTLEIQGDVTLSYVQI
